Some of the results follow.
How the values were obtained:
Test in all cases: log2 fold change, soluble protein after heating vs DMSO (PISA); higher = thermal stabilisation; K562 lysate, 10 uM; active = over 0.2 and 3.5 SD of the protein, either way, in both replicates (recomputed)
[1] = compound: C#Cc1cccc(Nc2ncnc3cc(OCCOC)c(OCCOC)cc23)c1 [erlotinib]
In short: (§1)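 A 30 min treatment with 10 μM compound was applied to crude K562 extract at 1 mg/mL protein in PBS pH 7.4 with 1 mM MgCl2. Heating for 3 min spanned 48°C-58°C, after which aliquots were pooled, adjusted to 0.5% NP-40 at 4°C and spun at 21,000xg for 90 min. TMTpro 16plex LC-MS/MS of the supernatant, with channel sums equalised, gave values recorded as log-two fold change in thermal stability against solvent controls, from duplicates.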

The chains behind the UniProt entries cited, without tags or fusion partners. Where a name states a change or a piece, a line headed by the entry shows the natural chain unless it says otherwise.
UniProt A8K855: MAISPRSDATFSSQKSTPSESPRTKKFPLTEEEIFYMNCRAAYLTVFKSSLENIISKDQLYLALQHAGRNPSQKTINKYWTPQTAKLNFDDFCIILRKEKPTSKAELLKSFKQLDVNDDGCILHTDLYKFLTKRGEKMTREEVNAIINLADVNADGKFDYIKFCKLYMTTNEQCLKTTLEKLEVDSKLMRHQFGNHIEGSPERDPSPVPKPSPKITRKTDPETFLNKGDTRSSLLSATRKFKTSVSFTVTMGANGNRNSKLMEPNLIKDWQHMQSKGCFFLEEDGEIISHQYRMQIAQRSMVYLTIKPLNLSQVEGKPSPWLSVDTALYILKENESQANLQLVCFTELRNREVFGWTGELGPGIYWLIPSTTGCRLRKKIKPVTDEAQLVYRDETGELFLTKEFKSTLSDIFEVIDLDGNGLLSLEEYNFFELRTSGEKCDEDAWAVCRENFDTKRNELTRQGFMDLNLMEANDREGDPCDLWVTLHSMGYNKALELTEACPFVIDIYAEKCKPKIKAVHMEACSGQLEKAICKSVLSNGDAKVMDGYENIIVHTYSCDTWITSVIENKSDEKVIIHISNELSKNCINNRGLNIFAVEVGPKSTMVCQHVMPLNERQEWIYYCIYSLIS
UniProt Q8NBA8: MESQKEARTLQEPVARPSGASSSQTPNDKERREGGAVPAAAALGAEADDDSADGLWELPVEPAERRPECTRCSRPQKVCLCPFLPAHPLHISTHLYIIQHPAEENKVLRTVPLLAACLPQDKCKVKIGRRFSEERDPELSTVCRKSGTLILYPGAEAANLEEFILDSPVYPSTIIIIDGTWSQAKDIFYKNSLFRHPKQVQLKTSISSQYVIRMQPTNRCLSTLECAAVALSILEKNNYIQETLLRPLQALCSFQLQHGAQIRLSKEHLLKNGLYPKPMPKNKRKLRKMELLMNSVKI
UniProt Q5VUJ9: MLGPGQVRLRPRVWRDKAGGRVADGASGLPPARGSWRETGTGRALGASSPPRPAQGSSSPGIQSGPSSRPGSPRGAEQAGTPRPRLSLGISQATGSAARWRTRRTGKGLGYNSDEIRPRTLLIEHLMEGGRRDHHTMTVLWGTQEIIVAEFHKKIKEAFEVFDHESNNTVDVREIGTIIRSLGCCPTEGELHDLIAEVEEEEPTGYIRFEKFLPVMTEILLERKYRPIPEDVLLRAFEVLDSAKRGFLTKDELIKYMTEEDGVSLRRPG
UniProt Q96FX2: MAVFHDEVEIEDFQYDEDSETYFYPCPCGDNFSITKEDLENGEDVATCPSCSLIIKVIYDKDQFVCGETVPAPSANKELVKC
UniProt Q96G04: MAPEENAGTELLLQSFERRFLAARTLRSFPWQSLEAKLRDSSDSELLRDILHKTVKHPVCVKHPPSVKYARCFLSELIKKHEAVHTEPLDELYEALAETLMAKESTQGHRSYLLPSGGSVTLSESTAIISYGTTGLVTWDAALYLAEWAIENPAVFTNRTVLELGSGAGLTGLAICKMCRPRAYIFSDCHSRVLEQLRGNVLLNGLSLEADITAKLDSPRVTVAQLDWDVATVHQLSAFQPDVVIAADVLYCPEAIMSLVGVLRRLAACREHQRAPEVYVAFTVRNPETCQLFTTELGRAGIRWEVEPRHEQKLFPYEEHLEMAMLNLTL
UniProt Q6ZPD9: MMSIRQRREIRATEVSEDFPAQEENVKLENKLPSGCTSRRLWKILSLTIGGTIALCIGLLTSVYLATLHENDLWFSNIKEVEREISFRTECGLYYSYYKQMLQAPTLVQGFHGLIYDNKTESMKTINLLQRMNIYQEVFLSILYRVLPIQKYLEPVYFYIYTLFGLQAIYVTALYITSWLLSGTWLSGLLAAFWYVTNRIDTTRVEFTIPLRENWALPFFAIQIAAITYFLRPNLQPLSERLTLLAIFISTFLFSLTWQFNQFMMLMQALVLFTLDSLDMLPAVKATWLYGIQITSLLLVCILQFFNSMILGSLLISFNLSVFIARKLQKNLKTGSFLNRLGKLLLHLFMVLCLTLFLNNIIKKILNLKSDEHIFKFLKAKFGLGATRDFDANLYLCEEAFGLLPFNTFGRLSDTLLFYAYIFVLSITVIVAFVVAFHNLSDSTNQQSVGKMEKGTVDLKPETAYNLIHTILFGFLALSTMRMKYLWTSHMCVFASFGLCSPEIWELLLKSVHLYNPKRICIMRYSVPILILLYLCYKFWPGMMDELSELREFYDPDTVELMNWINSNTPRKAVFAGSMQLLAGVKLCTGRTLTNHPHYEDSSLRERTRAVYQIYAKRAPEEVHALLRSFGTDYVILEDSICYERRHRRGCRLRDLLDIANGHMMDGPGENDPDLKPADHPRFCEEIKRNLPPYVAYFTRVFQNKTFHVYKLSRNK
UniProt Q9BV94: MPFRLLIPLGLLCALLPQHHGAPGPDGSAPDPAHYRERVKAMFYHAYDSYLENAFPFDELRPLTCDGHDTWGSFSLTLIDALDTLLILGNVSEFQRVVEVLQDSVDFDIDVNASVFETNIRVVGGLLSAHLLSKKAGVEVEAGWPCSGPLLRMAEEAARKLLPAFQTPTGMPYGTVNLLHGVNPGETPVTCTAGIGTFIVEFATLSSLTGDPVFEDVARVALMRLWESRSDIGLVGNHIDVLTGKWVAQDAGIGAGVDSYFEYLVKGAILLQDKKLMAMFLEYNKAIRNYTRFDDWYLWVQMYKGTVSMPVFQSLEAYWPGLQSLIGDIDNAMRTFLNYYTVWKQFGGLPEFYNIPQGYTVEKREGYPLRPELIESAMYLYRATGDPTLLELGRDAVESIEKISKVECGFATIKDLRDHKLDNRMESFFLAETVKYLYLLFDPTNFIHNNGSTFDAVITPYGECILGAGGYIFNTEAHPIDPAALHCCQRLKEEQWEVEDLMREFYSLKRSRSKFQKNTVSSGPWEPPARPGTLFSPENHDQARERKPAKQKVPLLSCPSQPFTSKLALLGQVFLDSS
UniProt P32926: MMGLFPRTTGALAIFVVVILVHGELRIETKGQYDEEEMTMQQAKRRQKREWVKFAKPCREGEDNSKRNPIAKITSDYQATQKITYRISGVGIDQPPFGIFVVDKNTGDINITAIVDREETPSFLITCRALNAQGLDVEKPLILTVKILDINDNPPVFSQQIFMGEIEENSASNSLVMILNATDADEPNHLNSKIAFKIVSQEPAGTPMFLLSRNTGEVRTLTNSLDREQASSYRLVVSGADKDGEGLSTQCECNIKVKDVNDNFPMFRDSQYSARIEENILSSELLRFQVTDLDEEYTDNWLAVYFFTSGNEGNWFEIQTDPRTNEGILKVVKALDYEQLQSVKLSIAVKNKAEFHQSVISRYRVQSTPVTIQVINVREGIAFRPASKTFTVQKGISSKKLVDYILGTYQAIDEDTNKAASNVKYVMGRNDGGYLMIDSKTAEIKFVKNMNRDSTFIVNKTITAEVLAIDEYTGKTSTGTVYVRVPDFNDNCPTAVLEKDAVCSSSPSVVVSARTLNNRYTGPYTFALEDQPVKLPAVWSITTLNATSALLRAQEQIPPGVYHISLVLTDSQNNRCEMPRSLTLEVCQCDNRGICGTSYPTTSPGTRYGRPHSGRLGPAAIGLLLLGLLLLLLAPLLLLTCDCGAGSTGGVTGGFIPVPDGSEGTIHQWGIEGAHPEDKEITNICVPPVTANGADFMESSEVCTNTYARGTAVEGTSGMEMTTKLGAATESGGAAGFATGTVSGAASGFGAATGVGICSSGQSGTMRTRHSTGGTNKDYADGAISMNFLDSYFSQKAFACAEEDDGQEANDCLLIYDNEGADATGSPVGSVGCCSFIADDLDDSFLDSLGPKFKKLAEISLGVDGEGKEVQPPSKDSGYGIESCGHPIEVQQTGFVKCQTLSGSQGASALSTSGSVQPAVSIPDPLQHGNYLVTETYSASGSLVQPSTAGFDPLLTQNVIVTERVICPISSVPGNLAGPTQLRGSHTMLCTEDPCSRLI

[2] = compound: C1=CC(=CC=C1C2=NC3=C(N2)C=C(C=C3)C(=O)N)OC4=CC=C(C=C4)Cl
In short: as §1

[3] = compound: C1=CC2=NC=CN=C2C=C1/C=C/3\C(=O)NC(=O)S3
In short: as §1

[4] = compound: C1CCN(C1)C(=O)NC2=CC=CC(=C2)NC3=NC=C(C(=N3)NCCC4=CN=CN4)Br
In short: as §1

[5] = compound: C1CN(CCC1(CC2=CC=C(C=C2)Cl)N)C3=NC=NC4=C3C=CN4
In short: as §1

[6] = compound: C=CC(=O)N1CCC[C@@H](n2nc(-c3ccc(Oc4ccccc4)cc3)c3c(N)ncnc32)C1 [ibrutinib]
In short: as §1

[7] = compound: CC(C)C1=C2N=C(C=C(N2N=C1)NCC3=CC=CC=C3)NCCCCCCN
In short: as §1

[8] = compound: C1=CC=C(C=C1)C2=NC(=C(N2)C3=CC=NC=C3)C4=CC(=C(C=C4)Cl)O
In short: as §1

[9] = compound: C1COCCN1CCN2C3=CC=CC=C3N=C2NC(=O)C4=CC(=CC=C4)[N+](=O)[O-] [IRAK-1-4 Inhibitor I]
In short: as §1

[10] = compound: CC(C)(C)Cn1c(N)nc2ccc(-c3[nH]c(C(C)(C)C)nc3-c3ccc(F)cc3)nc21 [ralimetinib]
In short: as §1

[11] = compound: CC(C)(O)CC(=O)NCCn1ccc2ncnc(Nc3ccc(Oc4cccc(C(F)(F)F)c4)c(Cl)c3)c21
In short: as §1

[12] = compound: CC1=C(C=C(C=C1)NC(=O)C2=CC(=CC=C2)N(C)C)NC(=O)C3=CC=C(C=C3)O
In short: as §1

[13] = compound: CC(=O)c1cnc2ccc(-c3cc(Cl)c(O)c(Cl)c3)nc2c1N[C@H]1CC[C@H](CN(C)C)CC1
In short: as §1

[14] = compound: CC1=C(C(CC(=O)N1)C2=CC=C(C=C2)C(F)(F)F)C(=O)NC3=C(C=C4C(=C3)C=NN4)F
In short: as §1

[15] = compound: CC1=C(C=C(C=C1)NC(=O)C2=CC(=CC=C2)C(C)(C)C#N)NC3=CC4=C(C=C3)N=CN(C4=O)C
In short: as §1

[16] = compound: CC1=CC=C(C=C1)SC2=C3C=C(SC3=CN=C2)C(=O)N
In short: as §1

[17] = compound: C/C(=N\NC(=O)C1=CC(=CC=C1)S(=O)(=O)N2CCOCC2)/C3=C(C=CC(=C3)Cl)O
In short: as §1

[18] = compound: C1=CC2=C(C=CC(=C2)/C=C\3/C(=O)NC(=NCC4=CC=CS4)S3)N=C1
In short: as §1

[19] = compound: C1=CC=C2C(=C1)C3=NNC4=CC=CC(=C43)C2=O
In short: as §1

[20] = compound: CC1=C(C2=C(C=C1)C(=O)C3=CC=CC=C3N2CCCN)C
In short: as §1

Measured: log2 fold change

DST isoform 3 (UniProt Q03001)
inactive: [1] 0.005 | [2] 0.181 | [3] -0.085 | [4] -0.034 | [5] -0.043 | [6] 0.005 | [7] -0.01

EFCAB7 (UniProt A8K855)
inactive: [8] 0.021 | [9] -0.013 | [10] -0.237 | [11] -0.059 | [12] 0.129

DTWD2 (UniProt Q8NBA8)
inactive: [1] 0.022 | [2] -0.021 | [3] 0.029 | [8] 0.016 | [9] 0.032 | [6] -0.009 | [13] 0.026 | [10] 0.085 | [11] -0.024 | [7] -0.107 | [14] 0.087 | [15] 0.005 | [12] 0.013 | [16] -0.038

EFCAB2 isoform 2 (UniProt Q5VUJ9)
inactive: [1] -0.025 | [2] -0.122 | [8] -0.022 | [4] 0.036 | [5] 0.051 | [9] 0.033 | [10] -0.004 | [11] 0.047 | [7] 0.009 | [14] 0.057 | [15] -0.057 | [12] -0.021

DPH3 (UniProt Q96FX2)
inactive: [17] 0.114 | [18] 0.065 | [3] -0.092 | [19] -0.08 | [4] 0.057 | [5] 0.026 | [6] 0.248 | [20] -0.014 | [15] 0.25

EEF2KMT (UniProt Q96G04)
inactive: [1] 0.078 | [17] 0.026 | [2] -0.015 | [18] 0.055 | [8] 0.082 | [19] 0 | [4] -0.076 | [5] 0.053 | [9] -0.016 | [10] -0.029 | [11] 0.057 | [7] 0.064 | [14] -0.054 | [20] -0.15 | [15] -0.082 | [12] -0.085

DUT (UniProt H0YMP1)
inactive: [3] -0.163 | [6] 0.306 | [13] -0.071 | [16] 0.181

DPY19L3 (UniProt Q6ZPD9)
inactive: [1] -0.131 | [17] 0.007 | [2] -0.097 | [18] 0.101 | [3] 0.211 | [19] -0.2 | [4] 0.005 | [5] 0.008 | [6] -0.111 | [13] 0.012 | [7] -0.224 | [15] 0.047 | [16] -0.017

EDEM2 (UniProt Q9BV94)
inactive: [1] 0.043 | [17] 0.059 | [2] 0.054 | [18] 0.066 | [8] -0.033 | [19] -0.132 | [4] 0.026 | [5] 0.031 | [9] 0.007 | [13] -0.052 | [10] 0.086 | [11] -0.142 | [7] 0.052 | [14] 0.01 | [20] 0 | [15] -0.147 | [12] 0.004 | [16] -0.153

DSG3 (UniProt P32926)
inactive: [3] -0.008 | [8] -0.366 | [9] -0.028 | [6] -0.01 | [10] -0.063 | [11] -0.076 | [12] 0.022

Reference: the supplement of paper PMC10849652
